Data from the supplement of paper PMC10849652.
Some of the results follow.

Amino acid sequences for entries named in this document (tags omitted). A change or cut given only in a name is not applied to a line headed by its entry.
UniProt P15311, whole entry, looked up: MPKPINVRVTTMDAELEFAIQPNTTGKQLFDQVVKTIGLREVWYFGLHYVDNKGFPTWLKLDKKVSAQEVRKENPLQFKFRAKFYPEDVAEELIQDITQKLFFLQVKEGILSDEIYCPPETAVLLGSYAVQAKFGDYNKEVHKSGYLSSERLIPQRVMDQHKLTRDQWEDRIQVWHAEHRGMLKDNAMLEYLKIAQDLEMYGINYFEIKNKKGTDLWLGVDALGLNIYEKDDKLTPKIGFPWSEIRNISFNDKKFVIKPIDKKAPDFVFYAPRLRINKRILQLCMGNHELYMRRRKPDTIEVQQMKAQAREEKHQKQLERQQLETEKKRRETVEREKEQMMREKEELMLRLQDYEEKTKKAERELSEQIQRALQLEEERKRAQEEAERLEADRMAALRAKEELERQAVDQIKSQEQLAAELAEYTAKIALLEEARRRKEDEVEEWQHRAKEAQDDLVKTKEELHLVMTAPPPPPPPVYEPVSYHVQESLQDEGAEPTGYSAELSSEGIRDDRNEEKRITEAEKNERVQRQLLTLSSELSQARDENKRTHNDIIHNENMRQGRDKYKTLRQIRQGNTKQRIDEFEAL
UniProt O43414: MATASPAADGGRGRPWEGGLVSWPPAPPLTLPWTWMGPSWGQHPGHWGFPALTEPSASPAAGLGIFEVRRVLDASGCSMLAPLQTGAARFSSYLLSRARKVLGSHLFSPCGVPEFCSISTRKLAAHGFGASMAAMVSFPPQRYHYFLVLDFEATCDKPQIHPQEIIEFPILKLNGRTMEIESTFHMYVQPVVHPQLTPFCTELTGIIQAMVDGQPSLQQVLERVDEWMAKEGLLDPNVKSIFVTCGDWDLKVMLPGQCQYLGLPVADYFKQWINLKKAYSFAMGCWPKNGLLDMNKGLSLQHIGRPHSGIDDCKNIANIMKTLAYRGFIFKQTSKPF
UniProt Q14674: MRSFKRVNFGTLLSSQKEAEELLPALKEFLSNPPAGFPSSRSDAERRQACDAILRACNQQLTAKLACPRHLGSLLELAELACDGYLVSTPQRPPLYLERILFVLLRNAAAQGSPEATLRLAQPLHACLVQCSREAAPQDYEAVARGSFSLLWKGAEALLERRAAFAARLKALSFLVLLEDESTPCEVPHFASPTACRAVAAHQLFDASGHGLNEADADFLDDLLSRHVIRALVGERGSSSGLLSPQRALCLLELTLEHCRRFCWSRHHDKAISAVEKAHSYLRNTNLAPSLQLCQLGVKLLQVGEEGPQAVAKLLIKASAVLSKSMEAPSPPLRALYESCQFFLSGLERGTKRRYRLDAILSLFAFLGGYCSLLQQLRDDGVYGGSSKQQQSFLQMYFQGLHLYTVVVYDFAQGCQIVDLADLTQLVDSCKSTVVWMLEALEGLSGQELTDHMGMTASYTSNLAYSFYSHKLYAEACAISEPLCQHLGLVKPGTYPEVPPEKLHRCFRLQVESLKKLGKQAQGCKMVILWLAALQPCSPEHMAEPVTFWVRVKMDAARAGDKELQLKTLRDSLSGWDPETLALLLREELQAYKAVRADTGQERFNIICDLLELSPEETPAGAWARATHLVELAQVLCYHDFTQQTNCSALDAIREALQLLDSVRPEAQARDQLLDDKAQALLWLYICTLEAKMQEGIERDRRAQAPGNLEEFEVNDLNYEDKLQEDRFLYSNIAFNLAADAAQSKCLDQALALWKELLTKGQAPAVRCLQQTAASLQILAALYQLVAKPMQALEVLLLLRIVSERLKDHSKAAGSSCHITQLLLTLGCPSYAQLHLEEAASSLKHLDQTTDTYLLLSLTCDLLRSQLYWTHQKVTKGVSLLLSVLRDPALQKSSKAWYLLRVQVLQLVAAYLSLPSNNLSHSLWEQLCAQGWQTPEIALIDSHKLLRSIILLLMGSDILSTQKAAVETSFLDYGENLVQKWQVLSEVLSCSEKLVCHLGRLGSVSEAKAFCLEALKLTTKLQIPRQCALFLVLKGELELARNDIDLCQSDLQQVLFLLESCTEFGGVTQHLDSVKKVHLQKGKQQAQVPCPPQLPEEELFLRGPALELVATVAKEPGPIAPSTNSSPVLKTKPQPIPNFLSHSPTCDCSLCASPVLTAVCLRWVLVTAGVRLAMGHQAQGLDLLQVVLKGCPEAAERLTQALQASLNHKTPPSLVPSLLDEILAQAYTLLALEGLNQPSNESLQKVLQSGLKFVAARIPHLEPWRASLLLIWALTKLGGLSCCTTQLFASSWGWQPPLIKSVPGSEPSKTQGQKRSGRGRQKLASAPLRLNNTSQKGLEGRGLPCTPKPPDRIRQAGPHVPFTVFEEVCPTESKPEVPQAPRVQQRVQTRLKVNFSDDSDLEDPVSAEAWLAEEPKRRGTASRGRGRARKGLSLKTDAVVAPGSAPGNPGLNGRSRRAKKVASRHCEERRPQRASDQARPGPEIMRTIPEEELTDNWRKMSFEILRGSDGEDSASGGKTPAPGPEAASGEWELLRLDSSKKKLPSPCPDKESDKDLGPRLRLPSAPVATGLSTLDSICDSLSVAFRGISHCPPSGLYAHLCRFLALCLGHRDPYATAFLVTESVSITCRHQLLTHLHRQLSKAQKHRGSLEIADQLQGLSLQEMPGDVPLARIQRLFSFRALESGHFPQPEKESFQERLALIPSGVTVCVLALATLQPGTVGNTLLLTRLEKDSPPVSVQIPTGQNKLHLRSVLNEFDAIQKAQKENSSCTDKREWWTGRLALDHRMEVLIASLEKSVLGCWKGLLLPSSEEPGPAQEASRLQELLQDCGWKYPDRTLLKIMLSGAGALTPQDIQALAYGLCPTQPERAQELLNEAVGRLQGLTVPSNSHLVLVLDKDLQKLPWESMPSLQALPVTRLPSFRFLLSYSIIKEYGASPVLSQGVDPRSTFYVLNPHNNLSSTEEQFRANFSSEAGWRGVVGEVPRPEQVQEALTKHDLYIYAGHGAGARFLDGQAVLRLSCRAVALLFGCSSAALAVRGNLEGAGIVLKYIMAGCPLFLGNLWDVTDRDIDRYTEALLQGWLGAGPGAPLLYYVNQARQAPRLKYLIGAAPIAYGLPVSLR
UniProt Q96RI0: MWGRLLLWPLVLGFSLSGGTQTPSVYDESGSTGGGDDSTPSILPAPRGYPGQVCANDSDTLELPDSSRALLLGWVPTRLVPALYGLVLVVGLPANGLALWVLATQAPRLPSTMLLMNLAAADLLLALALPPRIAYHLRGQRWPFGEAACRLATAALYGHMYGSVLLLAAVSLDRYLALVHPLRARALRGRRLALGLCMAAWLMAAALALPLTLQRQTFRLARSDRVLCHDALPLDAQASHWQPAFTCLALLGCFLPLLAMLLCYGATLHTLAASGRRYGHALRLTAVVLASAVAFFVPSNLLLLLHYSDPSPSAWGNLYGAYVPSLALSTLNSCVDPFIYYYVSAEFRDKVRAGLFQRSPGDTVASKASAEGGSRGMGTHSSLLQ
UniProt Q96PV7: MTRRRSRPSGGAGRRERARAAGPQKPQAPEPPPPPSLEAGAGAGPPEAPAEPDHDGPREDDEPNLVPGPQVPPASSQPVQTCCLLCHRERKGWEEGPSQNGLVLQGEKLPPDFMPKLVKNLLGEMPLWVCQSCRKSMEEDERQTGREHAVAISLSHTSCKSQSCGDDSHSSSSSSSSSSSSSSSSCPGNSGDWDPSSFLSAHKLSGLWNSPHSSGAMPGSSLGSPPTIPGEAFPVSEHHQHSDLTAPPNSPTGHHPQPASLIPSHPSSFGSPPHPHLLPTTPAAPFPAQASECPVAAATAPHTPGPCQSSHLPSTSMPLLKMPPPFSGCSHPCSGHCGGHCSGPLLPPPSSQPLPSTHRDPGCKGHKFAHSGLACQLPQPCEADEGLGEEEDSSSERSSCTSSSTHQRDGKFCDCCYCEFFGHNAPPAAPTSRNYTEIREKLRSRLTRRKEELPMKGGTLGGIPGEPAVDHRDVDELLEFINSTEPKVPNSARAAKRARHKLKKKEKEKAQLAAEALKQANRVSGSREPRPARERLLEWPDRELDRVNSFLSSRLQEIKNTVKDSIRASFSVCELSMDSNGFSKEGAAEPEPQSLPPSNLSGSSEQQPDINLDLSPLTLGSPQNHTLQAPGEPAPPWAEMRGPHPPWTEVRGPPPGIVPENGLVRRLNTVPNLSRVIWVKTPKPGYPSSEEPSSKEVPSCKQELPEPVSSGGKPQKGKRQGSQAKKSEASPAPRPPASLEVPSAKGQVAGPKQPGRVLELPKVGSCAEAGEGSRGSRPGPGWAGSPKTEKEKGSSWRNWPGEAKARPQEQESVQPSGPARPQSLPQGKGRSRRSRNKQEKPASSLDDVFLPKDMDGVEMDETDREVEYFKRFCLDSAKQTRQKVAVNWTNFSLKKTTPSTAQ
UniProt Q9H6S3: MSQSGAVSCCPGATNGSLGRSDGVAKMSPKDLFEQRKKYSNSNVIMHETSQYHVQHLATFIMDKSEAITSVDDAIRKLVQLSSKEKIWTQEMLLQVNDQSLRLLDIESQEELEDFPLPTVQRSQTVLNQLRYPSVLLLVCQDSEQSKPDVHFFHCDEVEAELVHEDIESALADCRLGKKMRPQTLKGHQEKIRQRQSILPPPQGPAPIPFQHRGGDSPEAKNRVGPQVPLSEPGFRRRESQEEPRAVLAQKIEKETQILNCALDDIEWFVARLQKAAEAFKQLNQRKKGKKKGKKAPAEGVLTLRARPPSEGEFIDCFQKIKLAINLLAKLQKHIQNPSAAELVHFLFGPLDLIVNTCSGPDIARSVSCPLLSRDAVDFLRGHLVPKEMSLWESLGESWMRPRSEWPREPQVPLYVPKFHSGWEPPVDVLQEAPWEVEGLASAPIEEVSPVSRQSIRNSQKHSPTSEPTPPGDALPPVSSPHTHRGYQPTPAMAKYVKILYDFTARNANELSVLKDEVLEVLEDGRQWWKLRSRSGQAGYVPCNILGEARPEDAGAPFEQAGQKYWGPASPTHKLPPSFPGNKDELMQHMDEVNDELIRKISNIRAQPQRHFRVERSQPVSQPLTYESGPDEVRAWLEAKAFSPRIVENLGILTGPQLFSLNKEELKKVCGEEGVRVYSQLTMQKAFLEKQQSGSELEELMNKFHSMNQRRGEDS
UniProt Q15910, whole entry, looked up: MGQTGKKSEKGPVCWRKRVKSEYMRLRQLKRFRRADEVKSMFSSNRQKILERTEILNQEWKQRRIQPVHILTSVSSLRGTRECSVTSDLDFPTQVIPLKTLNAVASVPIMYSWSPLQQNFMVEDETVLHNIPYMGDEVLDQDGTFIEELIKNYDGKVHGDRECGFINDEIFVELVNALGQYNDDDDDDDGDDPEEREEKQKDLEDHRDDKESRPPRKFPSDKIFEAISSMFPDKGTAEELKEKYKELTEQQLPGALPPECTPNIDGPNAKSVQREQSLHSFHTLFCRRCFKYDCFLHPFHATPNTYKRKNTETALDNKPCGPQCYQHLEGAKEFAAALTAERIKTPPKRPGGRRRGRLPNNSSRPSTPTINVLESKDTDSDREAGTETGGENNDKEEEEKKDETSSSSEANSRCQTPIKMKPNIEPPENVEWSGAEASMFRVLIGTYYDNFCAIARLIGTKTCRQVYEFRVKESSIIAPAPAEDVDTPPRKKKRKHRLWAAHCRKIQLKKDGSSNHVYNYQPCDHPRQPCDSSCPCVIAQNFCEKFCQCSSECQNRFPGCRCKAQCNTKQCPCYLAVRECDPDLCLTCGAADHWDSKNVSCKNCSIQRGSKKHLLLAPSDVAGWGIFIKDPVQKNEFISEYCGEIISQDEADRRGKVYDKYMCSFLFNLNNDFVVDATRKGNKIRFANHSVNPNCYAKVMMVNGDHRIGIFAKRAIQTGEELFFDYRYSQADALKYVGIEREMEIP
UniProt Q9Y2C4: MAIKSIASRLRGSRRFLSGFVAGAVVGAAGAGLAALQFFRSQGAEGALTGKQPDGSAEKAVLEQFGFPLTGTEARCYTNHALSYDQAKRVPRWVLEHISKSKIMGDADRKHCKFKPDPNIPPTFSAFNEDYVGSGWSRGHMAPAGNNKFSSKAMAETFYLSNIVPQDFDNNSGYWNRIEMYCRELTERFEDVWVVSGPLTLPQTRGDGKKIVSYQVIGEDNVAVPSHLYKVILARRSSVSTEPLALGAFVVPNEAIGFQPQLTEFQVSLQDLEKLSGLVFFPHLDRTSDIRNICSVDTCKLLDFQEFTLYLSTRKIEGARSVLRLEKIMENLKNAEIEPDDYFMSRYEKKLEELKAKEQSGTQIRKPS
UniProt O75616: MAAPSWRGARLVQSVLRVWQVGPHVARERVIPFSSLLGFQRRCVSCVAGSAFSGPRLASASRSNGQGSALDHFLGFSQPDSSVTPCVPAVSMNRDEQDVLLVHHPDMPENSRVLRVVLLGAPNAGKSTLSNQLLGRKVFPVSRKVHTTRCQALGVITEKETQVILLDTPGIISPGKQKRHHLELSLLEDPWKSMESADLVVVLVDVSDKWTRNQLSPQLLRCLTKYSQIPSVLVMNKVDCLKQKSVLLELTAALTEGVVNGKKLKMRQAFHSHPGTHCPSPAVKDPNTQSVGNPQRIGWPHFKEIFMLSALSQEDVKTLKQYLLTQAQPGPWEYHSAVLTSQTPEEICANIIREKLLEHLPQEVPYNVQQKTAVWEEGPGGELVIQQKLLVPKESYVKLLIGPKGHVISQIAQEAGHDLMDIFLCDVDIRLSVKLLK

What was measured:
Test in all cases: log2 fold change, soluble protein after heating vs DMSO (PISA); higher = thermal stabilisation; K562 cells, 10 uM, 30 min; active = over 0.2 and 3.5 SD of the protein, either way, in both replicates (recomputed)
[1] = compound: NC(=O)Nc1cc(-c2cccc(F)c2)sc1C(=O)N[C@H]1CCCNC1
How it was run: (§1)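 K562 cells at 2×10^6 cells/mL were treated for 30 min with 10 μM compound, and aliquots were heated for 3 min over 48°C-58°C before pooling. Extraction used PBS with 0.5% NP-40 at 4°C, and soluble protein was the supernatant after 21,000xg for 90 min, measured by TMTpro 16plex LC-MS/MS with channel sums equalised. Thermal stability values, relative to control samples and from duplicates, are log2 fold changes.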

[2] = compound: NC(=O)c1cnc(N[C@@H]2CCCC[C@@H]2N)nc1Nc1cccc(-n2nccn2)c1
How it was run: as §1

[3] = compound: NC1(c2ccc(-c3nc4ccn5c(=O)[nH]nc5c4cc3-c3ccccc3)cc2)CCC1
How it was run: as §1

[4] = compound: NCC(=O)Nc1ccc(-n2nc(C(F)(F)F)cc2-c2ccc3c(ccc4ccccc43)c2)cc1
How it was run: as §1

[5] = compound: Nc1ccccc1NC(=O)c1ccc(CNC(=O)OCc2cccnc2)cc1 [entinostat]
How it was run: as §1

[6] = compound: O=C(CCCCCCC(=O)Nc1ccccc1)NO [vorinostat]
How it was run: as §1

[7] = compound: O=C(CCCCCCNC(=O)c1cnc(N(c2ccccc2)c2ccccc2Cl)nc1)NO [citarinostat]
How it was run: as §1

[8] = compound: O=C(O)c1ccc2c(c1)nc(Nc1cccc(Cl)c1)c1ccncc12 [silmitasertib]
How it was run: as §1

[9] = compound: O=C1NC(=O)C(c2cnc3ccccn23)=C1c1cn2c3c(cc(F)cc13)CN(C(=O)N1CCCCC1)CC2
How it was run: as §1

[10] = compound: c1cc(OCCN2CCCCC2)cc(-c2n[nH]c3ccc(-c4nnc[nH]4)cc23)c1
How it was run: as §1

Measured: log2 fold change

ERLIN2 (UniProt O94905)
inactive: [1] 0.04 | [2] -0.047 | [3] -0.01 | [4] -0.062 | [5] 0.032 | [6] 0.048 | [7] 0.011 | [8] 0.002 | [9] 0.069 | [10] -0.044

ERCC8 (UniProt Q13216)
inactive: [1] -0.012 | [2] 0.036 | [3] 0.025 | [4] -0.046 | [5] 0 | [6] 0.035 | [7] 0.136 | [8] 0.017 | [10] -0.144

EZR (UniProt P15311)
inactive: [1] -0.018 | [2] -0.001 | [3] -0.006 | [4] -0.006 | [5] -0.009 | [6] -0.002 | [7] 0.017 | [8] -0.012 | [9] -0.055 | [10] 0.035

F2 (UniProt P00734)
inactive: [1] -0.043 | [2] -0.118 | [3] 0.09 | [4] -0.015 | [5] -0.031 | [6] 0.205 | [7] -0.02 | [8] 0.19 | [9] 0.064 | [10] 0.173

FADD (UniProt Q13158)
inactive: [1] -0.038 | [2] -0.09 | [3] -0.081 | [4] -0.015 | [5] 0.096 | [7] -0.102 | [8] 0.01 | [9] -0.033 | [10] -0.241

ERI3 (UniProt O43414)
inactive: [1] -0.102 | [2] -0.121 | [3] -0.051 | [4] -0.067 | [5] -0.016 | [6] 0.018 | [7] 0.023 | [8] -0.013 | [9] -0.052 | [10] -0.061

Fetched one by one from the entries so far (two):
FADD (UniProt Q13158)
inactive: [1] -0.038 | [2] -0.09 | [3] -0.081 | [4] -0.015 | [5] 0.096 | [7] -0.102 | [8] 0.01 | [9] -0.033 | [10] -0.241

ERI3 (UniProt O43414)
inactive: [1] -0.102 | [2] -0.121 | [3] -0.051 | [4] -0.067 | [5] -0.016 | [6] 0.018 | [7] 0.023 | [8] -0.013 | [9] -0.052 | [10] -0.061

The listing continues.

FAH isoform 2 (UniProt P16930)
inactive: [1] -0.006 | [2] -0.128 | [3] -0.089 | [4] -0.193 | [5] -0.02 | [6] -0.023 | [7] -0.091 | [8] 0.074 | [9] 0.031 | [10] -0.06

F5 (UniProt P12259)
inactive: [1] -0.095 | [2] -0.08 | [3] 0.048 | [4] -0.024 | [5] -0.045 | [6] -0.016 | [7] -0.019 | [8] 0.127 | [9] 0.084 | [10] 0.002

ERGIC1 (UniProt Q969X5)
inactive: [1] -0.105 | [2] -0.052 | [3] -0.068 | [4] -0.027 | [5] -0.054 | [6] 0.071 | [7] 0.073 | [8] -0.004 | [9] -0.004 | [10] -0.002

EXOSC1 (UniProt Q9Y3B2)
inactive: [1] 0.074 | [2] 0.034 | [3] 0.058 | [4] 0.026 | [5] -0.035 | [6] 0 | [7] 0.007 | [8] 0.033 | [9] 0.068 | [10] -0.047

ESPL1 (UniProt Q14674)
inactive: [1] -0.105 | [2] 0.092 | [3] 0.018 | [4] 0.328 | [5] -0.04 | [6] -0.093 | [8] -0.056 | [9] -0.27

ERCC5 (UniProt P28715)
inactive: [1] 0.033 | [2] 0.025 | [3] -0.33 | [4] 0.046 | [5] -0.017 | [6] 0.078 | [7] -0.066 | [8] -0.176 | [9] 0.027 | [10] -0.141

FAM160B1 (UniProt Q5W0V3)
active: [3] -0.211
inactive: [1] 0.04 | [2] -0.038 | [4] -0.043 | [5] 0.026 | [6] 0.139 | [7] 0.069 | [8] -0.026 | [9] -0.064 | [10] 0

ERCC3 (UniProt P19447)
inactive: [1] 0.068 | [2] -0.052 | [3] -0.323 | [4] -0.013 | [5] 0.043 | [6] 0.073 | [8] 0.133 | [9] 0.135

EPB41L3 (UniProt Q9Y2J2)
inactive: [1] -0.19 | [2] 0.014 | [3] 0.025 | [4] -0.002 | [5] -0.046 | [6] 0.048 | [7] 0.011 | [8] -0.04 | [9] -0.096 | [10] -0.015

ERCC1 isoform 3 (UniProt P07992)
inactive: [1] -0.339 | [5] -0.077

F2RL3 (UniProt Q96RI0)
inactive: [2] 0.003 | [4] -0.085

FAM193B (UniProt Q96PV7)
inactive: [1] 0.22 | [2] -0.053 | [4] -0.014 | [5] 0.25 | [7] 0.032 | [9] 0.149 | [10] -0.205

FAHD2B (UniProt Q6P2I3)
inactive: [2] -0.034 | [3] -0.147 | [7] 0.102 | [8] -0.149 | [9] -0.07 | [10] 0.006

ERCC6L (UniProt Q2NKX8)
inactive: [1] -0.029 | [2] -0.122 | [4] 0.055 | [5] 0.017 | [6] 0.147 | [7] 0.023 | [9] 0.267 | [10] -0.117

EPS8L2 isoform 3 (UniProt Q9H6S3)
inactive: [1] -0.26 | [5] -0.211 | [7] -0.023 | [9] 0.084 | [10] -0.066

EPPK1 (UniProt P58107)
inactive: [1] 0.042 | [3] 0.113 | [4] -0.07 | [5] -0.202 | [6] 0.131 | [7] -0.119 | [8] 0.238 | [9] 0.238 | [10] -0.112

EZH2 isoform 2 (UniProt Q15910)
inactive: [1] 0.316 | [2] -0.004 | [3] 0.342 | [4] 0.33 | [5] -0.039 | [8] 0.046 | [9] -0.118

ERI3 (UniProt H0Y4B0)
inactive: [1] -0.094 | [5] -0.069 | [7] -0.424 | [9] -0.765 | [10] -0.057

ERN1 (UniProt O75460)
inactive: [1] -0.04 | [3] 0.02 | [5] -0.107 | [6] 0.087 | [8] 0.009 | [9] -0.17

ESRRA (UniProt P11474)
inactive: [1] -0.051 | [2] 0.024 | [3] -0.045 | [4] -0.064 | [5] -0.033 | [7] -0.019 | [8] 0.003 | [9] -0.059 | [10] 0.022

EXOG (UniProt Q9Y2C4)
inactive: [2] 0.04 | [3] 0.007 | [4] -0.001 | [6] -0.033 | [7] -0.048 | [8] -0.036 | [10] 0.004

EXD2 (UniProt Q9NVH0)
inactive: [1] -0.073 | [5] 0.132 | [9] 0.037

ERAL1 (UniProt O75616)
inactive: [1] 0.123 | [2] -0.169 | [3] 0.019 | [4] -0.056 | [5] -0.08 | [7] -0.026 | [8] -0.005 | [9] 0.023 | [10] -0.146

F10 (UniProt P00742)
inactive: [1] -0.058 | [3] -0.077 | [4] 0.066 | [5] 0.021 | [7] 0.09 | [8] 0.012 | [9] 0.071 | [10] 0.204

EPG5 (UniProt Q9HCE0)
inactive: [1] -0.214 | [5] 0.022 | [9] 0

EXO5 (UniProt Q9H790)
inactive: [1] -0.051 | [5] 0.004

EVPL (UniProt Q92817)
inactive: [1] -0.376 | [3] 0.039 | [5] -0.258 | [6] 0.173 | [7] 0.048 | [8] 0.151 | [10] -0.216

ERF (UniProt P50548)
inactive: [1] -0.53 | [5] -0.019 | [6] 0.023 | [9] -0.273

FAM172A (UniProt Q8WUF8)
inactive: [1] 0.104 | [3] -0.063 | [4] 0.087 | [5] -0.097 | [6] -0.018 | [7] -0.065 | [8] -0.103 | [9] -0.056 | [10] 0.024
